The source of these data is patent US20250263370A1 (Tay Therapeutics Limited, priority 2022, published 2025).

Several values for one entry are separate records, joined by “and”; a condition that tells them apart may be missing. Identical values can stand only once. The source gives many values for each of these; only a part stands here.

The subject of this assay is collagen-induced arthritis. Description: Collagen-induced arthritis (CIA) model in rats: body weight, paw volume, clinical scores, clinical observations. The settings on record: individual animals.

Turning to `CNC(=O)c1cc(C(=O)NC2CC2)cn(Cc2ccccc2)c1=O` [GSK620, reference compound], the “Animal paw volume percent change” value is, setting by setting: (Day 15, L paw) 8.79% and 10.58% and 19.48% and 62.36% and 29.63%; (Day 15, R paw) 76.92% and 7.33% and 17.36% and 60.38% and 33.71%; (Day 18, L paw) 109.89% and 67.15% and 53.18% and 101.90% and 72.96%; (Day 18, R paw) 130.40% and 6.59% and 53.96% and 79.25% and 75.28%; (Day 19, L paw) 83.00% and 123.81% and 90.15% and 63.67% and 100.00% and 71.48%; (Day 19, R paw) 82.75% and 130.40% and 6.59% and 65.66% and 77.74% and 74.16%. The “Animal paw volume percent change” value was 84.58% and 122.34% and 90.88% and 65.17% and 92.78% and 71.48% (Day 21, L paw); 72.94% and 125.27% and 17.95% and 64.15% and 78.49% and 74.16% (Day 21, R paw).
For `C[C@@H]1C[C@H]2[C@@H]3CCC4=CC(=O)C=C[C@]4(C)[C@@]3(F)[C@@H](O)C[C@]2(C)[C@@]1(O)C(=O)CO` [dexamethasone, reference compound], the “Animal paw volume percent change” value is −3.77% and −3.09% and −10.77% and −0.75% and −6.99% (Day 15, L paw); −5.95% and −1.56% and −12.36% and −2.95% and −8.06% (Day 15, R paw); −2.97% and 0.00% and −10.04% and −1.48% and −5.86% (Day 18, R paw); 3.61% and −2.26% and −1.54% and −8.85% and −0.75% and −4.78% (Day 19, L paw); 4.36% and −2.97% and −1.56% and −9.27% and −2.58% and −5.13% (Day 19, R paw); 3.64% and −2.97% and 0.78% and −9.27% and −2.95% and −5.13% (Day 21, R paw).
